Binding data for 2 substances are collected here from PMC6921592.

Sequences of proteins named here, by UniProt entry; tags and fusion partners are left off.
UniProt Q80U70: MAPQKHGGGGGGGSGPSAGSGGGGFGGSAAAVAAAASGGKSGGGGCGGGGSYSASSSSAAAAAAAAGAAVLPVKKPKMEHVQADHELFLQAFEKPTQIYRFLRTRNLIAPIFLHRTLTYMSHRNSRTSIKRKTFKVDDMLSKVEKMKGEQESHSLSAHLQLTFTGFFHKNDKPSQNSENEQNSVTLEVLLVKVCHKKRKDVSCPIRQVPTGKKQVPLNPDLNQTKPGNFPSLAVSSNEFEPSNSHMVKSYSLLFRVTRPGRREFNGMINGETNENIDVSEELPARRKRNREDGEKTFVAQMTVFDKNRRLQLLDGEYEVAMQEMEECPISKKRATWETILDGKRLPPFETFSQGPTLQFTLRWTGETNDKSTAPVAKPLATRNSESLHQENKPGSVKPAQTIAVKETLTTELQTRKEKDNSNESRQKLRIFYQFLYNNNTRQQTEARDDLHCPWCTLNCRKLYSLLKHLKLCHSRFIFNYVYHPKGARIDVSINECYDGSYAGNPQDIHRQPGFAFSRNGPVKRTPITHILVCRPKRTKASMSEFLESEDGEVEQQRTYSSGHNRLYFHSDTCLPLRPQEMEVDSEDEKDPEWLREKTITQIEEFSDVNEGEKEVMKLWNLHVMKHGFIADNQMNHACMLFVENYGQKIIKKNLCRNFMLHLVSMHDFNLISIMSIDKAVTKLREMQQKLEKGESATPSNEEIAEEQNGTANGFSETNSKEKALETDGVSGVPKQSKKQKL
UniProt P70351: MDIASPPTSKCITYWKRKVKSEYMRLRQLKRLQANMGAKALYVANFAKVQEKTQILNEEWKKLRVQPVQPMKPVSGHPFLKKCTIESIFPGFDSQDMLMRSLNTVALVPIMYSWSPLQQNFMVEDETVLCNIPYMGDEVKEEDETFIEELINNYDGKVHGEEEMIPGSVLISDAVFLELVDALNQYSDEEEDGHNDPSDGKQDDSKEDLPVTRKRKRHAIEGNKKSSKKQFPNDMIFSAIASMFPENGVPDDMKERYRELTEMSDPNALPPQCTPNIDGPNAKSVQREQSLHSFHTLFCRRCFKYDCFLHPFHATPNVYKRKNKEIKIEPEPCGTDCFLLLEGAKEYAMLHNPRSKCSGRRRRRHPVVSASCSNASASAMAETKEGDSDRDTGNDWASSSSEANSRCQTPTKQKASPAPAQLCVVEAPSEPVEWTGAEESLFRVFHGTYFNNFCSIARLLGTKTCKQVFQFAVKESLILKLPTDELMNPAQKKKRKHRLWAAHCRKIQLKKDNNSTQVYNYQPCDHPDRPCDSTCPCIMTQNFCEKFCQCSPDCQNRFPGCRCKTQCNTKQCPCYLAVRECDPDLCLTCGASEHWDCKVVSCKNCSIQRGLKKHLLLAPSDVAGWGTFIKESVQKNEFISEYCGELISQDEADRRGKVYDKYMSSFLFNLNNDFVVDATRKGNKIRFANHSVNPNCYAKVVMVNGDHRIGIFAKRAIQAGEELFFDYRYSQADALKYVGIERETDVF
UniProt Q921E6: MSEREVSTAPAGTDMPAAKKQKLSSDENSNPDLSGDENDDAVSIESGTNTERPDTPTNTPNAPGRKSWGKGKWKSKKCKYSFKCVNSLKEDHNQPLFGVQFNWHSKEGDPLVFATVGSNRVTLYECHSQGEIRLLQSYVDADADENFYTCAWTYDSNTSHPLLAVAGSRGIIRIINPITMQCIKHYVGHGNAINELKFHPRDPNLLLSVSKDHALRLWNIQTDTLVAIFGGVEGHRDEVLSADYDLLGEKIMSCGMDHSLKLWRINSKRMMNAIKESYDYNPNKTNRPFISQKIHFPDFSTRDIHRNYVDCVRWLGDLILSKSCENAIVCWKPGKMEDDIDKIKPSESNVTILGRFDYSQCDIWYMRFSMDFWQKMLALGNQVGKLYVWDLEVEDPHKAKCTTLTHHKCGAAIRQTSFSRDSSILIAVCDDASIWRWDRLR

No constants are given. Whether binding was seen depends on the method and setting. Binding seen in cells or lysates may run through a third protein. Some entries that bind do so weakly or less than the wild type.

Assay [1] concerns the target SUZ12 (mouse (endogenous in C2C12)) (UniProt Q80U70). The assay can be described thus: co-IP; nuclear extracts of scramble and NEDD4 knock-down C2C12 lines, normal and oxidative stress conditions, immunoprecipitated with SUZ12 antibody; Protein A Dynabeads alone as mock; immunoblot with anti-EED. In general terms: In western blotting, separated proteins are transferred to a membrane and probed.

The target in a further assay is Ezh1α-FLAG-HA (UniProt P70351). The assay can be described thus: co-IP; Ezh1α-FH immunoprecipitated from nuclear extracts of two C2C12 stable lines, myotubes; wild-type C2C12 as mock; normal and H2O2 conditions, scramble and HUWE1 knock-down compared in Fig. 6f; immunoblot.

In the case of EED (from UniProt Q921E6 1-441), in assay [1], the binding entry is on record as “binds”.
Take SUZ12 (from UniProt Q80U70 1-741): the binding entry with Ezh1α-FLAG-HA was “binds”.
